Source: PMC3229559
No constants are given. Whether binding was seen depends on the method and setting. Binding seen in cells or lysates may run through a third protein. Some results given as binding are weak or reduced against the parent protein; the word gives no strength. For some assays here: Where a sequence is shown, tags or fusion partners need not be part of it. Blank lines part the entries; values can stand above or below the molecule they belong to.

Key:
[1] = molecular target: T1, endogenous syndecan-4 in left ventricular tissue (mouse (endogenous in LV tissue)) (UniProt O35988); experiment: co-IP; LV extracts (500 µg tissue extract A) from WT mice 24 h after SHAB or AB; anti-syndecan-4 or control IgG with protein A/G agarose overnight at 4°C; washes in IP-buffer and IP-buffer with high salt (1 M); immunoblot for PKC-α, CnA and calmodulin
T1 sequence: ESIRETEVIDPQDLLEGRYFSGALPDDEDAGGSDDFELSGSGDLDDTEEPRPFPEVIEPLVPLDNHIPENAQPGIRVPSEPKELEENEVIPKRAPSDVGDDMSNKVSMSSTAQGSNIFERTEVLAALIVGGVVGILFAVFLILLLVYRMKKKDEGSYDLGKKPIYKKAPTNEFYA

[2] = molecular target: T2, Biotinylated-syndecan-4 (biotinylated peptide spanning the cytoplasmic part of syndecan-4, residues 171-198); experiment: pull-down; biotinylated peptides (5 µM) incubated in total heart extract (tissue lysate B) from WT mice overnight at 4°C; anti-biotin-conjugated beads 60 min; washes in IP-buffer and IP-buffer with high salt (1 M); immunoblot for endogenous CnA and PKC-α; only the target purified
T2 sequence (peptide, biotin on the N-terminus): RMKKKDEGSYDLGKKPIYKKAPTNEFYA

[3] = molecular target: T3, Biotinylated-pS179-syndecan-4 (biotinylated phosphopeptide spanning the cytoplasmic part of syndecan-4); experiment: as above
T3 sequence (peptide, phosphoserine at 179 (pS); biotin on the N-terminus): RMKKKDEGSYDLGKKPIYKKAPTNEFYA

[4] = molecular target: T4, HA-tagged syndecan-4 full length (UniProt O35988); experiment: co-IP; lysates of HEK-293 cells co-transfected with syndecan-4 and CnA, in presence of 1.5 mM CaCl2; immunoprecipitation with anti-syndecan-4 or with anti-CnA, protein A/G agarose; washed three times in lysis buffer (20 mM Hepes pH 7.5, 150 mM NaCl, 1 mM EDTA, 0.5% Triton); immunoblot
T4 sequence: T1 sequence

[5] = molecular target: His-tagged CnAα (calcineurin A alpha) (UniProt P63328); experiment: as above

binding [1]: binds | binding [2]: binds | binding [3]: binds
Molecule: endogenous PKC-α in left ventricular tissue (from UniProt P20444 1-672) (enzyme)

binding [4]: binds
Molecule: His-tagged CnAα (calcineurin A alpha) (from UniProt P63328 1-521) (enzyme)

binding [5]: binds
B1: HA-tagged syndecan-4 full length (receptor, UniProt O35988 24-198)
chain: T1 sequence
